Results reported in PMC7170963.
Results are given in words; binding and its absence hold for the method and conditions named. In cells and extracts the contact can be indirect. Some entries that bind do so weakly or less than the wild type.

By UniProt entry, the sequences of proteins in these tests, tags left out.
UniProt P19474: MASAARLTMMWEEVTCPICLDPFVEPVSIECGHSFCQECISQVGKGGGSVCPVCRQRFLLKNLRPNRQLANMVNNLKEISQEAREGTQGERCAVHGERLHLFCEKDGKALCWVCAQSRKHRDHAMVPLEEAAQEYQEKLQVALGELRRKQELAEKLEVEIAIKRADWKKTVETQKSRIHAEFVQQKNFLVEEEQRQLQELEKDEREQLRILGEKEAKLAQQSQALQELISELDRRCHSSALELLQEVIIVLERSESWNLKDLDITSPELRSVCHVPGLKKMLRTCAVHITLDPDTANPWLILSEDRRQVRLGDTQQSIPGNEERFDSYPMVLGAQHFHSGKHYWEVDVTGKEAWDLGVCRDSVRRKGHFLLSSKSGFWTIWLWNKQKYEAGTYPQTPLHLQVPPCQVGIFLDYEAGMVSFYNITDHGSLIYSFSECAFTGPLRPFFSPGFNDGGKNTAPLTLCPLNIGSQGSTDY
UniProt P11413: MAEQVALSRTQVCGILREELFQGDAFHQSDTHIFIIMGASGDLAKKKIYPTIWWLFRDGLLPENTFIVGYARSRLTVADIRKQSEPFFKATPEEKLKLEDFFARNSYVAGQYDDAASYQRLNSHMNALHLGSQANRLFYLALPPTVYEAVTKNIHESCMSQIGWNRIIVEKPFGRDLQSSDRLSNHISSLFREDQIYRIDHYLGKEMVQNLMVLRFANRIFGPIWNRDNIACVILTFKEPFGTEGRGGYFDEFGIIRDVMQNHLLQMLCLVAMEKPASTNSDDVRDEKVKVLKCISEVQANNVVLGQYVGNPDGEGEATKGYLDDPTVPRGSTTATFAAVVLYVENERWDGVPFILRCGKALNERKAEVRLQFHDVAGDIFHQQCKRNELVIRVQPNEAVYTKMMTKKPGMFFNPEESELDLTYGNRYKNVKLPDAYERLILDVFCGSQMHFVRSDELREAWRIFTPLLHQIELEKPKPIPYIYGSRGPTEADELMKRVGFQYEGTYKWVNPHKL

Target: TRIM21 (human (endogenous in PC3)) (UniProt P19474)
Test: co-IP; endogenous proteins; PC3 cell lysates reciprocally immunoprecipitated and immunoblotted; Protein A-agarose with antibodies overnight at 4 °C, beads washed with lysis buffer; also after PKI-587 treatment of the cells (interaction not influenced)

**Q.** “G6PD (from UniProt P11413 1-515) (enzyme; other documents disagree on this pair)” was tested. Which binding did it give?
**A.** The binding was “binds”.
